No constants are given. Whether binding was seen depends on the method and setting. Binding seen in cells or lysates may run through a third protein. Here binding means that the protein was enriched with, or labelled near, the bait; the list need not be complete.

Protein sequences, listed by entry. Tags and fused reporters are not part of them.
UniProt Q2TAZ0: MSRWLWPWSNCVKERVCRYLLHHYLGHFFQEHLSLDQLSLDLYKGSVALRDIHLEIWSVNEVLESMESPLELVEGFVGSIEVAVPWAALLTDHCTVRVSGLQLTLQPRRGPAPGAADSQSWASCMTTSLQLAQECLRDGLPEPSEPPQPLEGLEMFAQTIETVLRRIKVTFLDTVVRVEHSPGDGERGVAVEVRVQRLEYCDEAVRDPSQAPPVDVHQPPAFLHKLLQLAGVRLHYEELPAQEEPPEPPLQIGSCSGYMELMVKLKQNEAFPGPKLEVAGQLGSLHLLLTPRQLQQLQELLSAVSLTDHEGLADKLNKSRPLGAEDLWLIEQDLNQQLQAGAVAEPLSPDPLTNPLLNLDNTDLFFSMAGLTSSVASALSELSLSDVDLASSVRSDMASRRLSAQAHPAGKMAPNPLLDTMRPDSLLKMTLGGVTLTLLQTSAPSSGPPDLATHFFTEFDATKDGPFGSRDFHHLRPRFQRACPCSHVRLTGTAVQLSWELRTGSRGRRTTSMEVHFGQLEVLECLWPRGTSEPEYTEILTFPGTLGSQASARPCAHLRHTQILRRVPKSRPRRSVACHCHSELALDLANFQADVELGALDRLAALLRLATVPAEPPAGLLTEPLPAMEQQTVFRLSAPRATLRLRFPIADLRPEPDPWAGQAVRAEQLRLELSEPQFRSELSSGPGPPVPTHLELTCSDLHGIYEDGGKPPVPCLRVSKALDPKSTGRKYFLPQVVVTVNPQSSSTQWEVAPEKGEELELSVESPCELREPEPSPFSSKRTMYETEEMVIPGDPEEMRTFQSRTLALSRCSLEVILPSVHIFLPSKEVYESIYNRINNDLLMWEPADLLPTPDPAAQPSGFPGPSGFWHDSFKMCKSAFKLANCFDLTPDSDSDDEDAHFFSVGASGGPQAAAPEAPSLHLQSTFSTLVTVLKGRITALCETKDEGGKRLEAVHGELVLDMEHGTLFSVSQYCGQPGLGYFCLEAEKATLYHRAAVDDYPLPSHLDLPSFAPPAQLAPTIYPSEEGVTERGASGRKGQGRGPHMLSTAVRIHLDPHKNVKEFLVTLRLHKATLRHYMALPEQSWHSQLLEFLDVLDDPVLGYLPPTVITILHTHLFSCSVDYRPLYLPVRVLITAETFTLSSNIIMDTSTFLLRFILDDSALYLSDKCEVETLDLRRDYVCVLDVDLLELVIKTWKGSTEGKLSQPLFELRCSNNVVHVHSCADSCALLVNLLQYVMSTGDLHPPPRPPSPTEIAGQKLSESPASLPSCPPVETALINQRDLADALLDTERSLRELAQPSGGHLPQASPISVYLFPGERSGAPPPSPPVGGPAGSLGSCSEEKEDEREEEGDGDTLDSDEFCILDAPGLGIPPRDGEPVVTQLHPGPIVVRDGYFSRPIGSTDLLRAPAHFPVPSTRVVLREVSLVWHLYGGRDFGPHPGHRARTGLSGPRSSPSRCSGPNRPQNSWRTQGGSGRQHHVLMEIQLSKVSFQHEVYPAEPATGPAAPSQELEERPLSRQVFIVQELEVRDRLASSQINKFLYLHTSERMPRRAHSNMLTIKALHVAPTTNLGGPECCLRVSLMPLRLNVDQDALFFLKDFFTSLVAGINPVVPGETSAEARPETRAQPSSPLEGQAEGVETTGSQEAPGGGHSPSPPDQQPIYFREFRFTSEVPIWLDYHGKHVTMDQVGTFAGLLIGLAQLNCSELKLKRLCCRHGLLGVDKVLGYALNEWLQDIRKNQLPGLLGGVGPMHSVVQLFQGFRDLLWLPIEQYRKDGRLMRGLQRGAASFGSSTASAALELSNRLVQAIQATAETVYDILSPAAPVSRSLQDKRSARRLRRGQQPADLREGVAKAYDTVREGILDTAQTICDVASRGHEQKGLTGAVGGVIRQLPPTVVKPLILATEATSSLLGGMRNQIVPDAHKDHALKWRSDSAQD
UniProt O75608: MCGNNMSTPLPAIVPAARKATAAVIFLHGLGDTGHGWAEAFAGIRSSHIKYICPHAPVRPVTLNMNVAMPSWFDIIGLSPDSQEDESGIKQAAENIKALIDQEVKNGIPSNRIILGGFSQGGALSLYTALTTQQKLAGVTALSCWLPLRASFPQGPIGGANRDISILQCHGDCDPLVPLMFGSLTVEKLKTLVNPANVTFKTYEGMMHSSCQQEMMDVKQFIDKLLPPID
UniProt O95372: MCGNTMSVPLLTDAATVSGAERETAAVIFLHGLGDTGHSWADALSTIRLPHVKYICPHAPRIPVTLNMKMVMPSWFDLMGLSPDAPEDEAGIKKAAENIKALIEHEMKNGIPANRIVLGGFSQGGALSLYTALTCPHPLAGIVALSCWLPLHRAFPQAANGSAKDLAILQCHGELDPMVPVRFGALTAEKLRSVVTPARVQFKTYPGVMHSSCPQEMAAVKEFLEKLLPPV

The target of the assay is HA-ATG2A (human) (UniProt Q2TAZ0). In words: affinity purification with mass spectrometry; HEK293T cells stably expressing HA-vec or HA-ATG2A, anti-HA affinity magnetic beads, on-bead digestion, HPLC-MS/MS.

In the case of “acyl-protein thioesterase 1 (endogenous) (from UniProt O75608 1-230) (enzyme)”, the binding result is reported as “binds”.
As for “acyl-protein thioesterase 2 (endogenous) (from UniProt O95372 1-231) (enzyme)”, the binding result is on record as “binds”.

For the origin of these results see PMC12048663.
